Results are given in words; binding and its absence hold for the method and conditions named. In cells and extracts the contact can be indirect. These calls come from enrichment with a bait or labelling near it, and not all partners need be listed.
Biological target: T1, un-acetylated N-terminal H2B.Z peptide, biotinylated (Toxoplasma gondii)
T1 sequence (peptide, biotin on the C-terminal lysine, K(Biotin)): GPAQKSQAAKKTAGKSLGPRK
Assay: affinity purification with mass spectrometry; biotinylated H2B.Z N-terminal peptides (acetylated or un-acetylated) as bait; nuclear extract (NE-PER kit) of extracellular RH tachyzoites; short SDS-PAGE, in-gel trypsin digestion, LC-MS/MS; two independent pull-downs for each peptide; only the target purified

Row | Substance | binding
1 | GCN5-A (enzyme) | binds
2 | histone H4 | binds
